Source: publication PMC8888484, “Ubr1-induced selective endophagy/autophagy protects against the endosomal and Ca^2+-induced proteostasis disease stress” (Cellular and Molecular Life Sciences: CMLS, 2022)
Numbering of substitutions follows the chain as printed. Names and notes keep the numbering of the source. Results are given in words; binding and its absence hold for the method and conditions named. In cells and extracts the contact can be indirect. Some binding calls cover weakened binding; strength is not graded here. For part of these data: Sequences can lack the tags named with a protein.

By UniProt entry, the sequences of proteins in these tests, tags left out.
UniProt P25685: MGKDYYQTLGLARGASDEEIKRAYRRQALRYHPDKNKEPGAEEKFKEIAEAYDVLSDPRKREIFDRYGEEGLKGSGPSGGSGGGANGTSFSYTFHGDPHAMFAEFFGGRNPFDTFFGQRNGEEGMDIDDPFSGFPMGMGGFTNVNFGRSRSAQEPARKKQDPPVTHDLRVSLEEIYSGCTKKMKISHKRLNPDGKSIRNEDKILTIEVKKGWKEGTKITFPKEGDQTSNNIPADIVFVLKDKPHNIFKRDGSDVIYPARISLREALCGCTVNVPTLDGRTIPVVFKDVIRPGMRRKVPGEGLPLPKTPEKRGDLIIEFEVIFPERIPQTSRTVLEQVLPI
UniProt P08238: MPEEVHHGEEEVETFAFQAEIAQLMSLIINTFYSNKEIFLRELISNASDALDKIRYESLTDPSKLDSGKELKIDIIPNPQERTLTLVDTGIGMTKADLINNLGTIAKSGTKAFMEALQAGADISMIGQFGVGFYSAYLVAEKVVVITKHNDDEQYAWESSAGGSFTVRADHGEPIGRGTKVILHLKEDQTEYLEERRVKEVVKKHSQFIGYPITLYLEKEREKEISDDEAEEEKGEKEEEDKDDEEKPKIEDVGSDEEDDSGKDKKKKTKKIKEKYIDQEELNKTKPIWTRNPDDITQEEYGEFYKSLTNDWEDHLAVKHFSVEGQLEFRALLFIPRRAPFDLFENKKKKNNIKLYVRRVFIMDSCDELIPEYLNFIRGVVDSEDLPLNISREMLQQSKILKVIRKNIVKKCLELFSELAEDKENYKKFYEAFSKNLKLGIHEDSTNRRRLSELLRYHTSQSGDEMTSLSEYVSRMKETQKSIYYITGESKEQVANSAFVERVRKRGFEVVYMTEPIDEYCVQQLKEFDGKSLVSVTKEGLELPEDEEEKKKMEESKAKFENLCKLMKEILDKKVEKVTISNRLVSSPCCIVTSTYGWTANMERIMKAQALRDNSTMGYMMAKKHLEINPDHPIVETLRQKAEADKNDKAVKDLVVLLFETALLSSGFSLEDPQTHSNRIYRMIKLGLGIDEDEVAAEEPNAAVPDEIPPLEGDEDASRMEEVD
UniProt Q9UNE7: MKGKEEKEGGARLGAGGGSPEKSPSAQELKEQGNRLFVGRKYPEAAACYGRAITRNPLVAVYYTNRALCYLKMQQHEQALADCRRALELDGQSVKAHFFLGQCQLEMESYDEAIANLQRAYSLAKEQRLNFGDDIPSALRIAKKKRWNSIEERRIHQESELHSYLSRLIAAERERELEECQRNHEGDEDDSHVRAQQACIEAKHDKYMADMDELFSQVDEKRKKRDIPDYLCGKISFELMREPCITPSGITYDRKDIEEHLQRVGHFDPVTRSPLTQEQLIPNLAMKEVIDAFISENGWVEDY
UniProt P11142: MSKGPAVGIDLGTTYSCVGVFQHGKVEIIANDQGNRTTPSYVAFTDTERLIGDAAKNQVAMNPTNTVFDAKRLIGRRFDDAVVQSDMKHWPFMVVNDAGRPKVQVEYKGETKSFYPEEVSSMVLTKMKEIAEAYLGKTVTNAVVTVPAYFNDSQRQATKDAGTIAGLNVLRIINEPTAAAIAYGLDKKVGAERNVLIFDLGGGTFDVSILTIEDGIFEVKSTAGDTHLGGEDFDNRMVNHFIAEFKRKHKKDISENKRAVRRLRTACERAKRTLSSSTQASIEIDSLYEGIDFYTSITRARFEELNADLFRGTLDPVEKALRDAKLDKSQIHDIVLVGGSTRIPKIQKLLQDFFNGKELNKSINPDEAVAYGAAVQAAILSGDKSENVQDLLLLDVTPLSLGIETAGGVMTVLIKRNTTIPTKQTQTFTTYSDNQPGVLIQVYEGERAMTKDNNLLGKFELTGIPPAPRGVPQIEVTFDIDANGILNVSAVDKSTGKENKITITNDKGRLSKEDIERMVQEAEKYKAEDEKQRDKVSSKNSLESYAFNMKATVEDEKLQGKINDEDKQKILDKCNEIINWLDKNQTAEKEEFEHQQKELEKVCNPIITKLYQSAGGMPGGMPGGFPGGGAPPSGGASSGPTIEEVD

T1: 2HA-MLC1-S280L (human (by the printed GeneID 23209; the paper does not say the species in words)) (UniProt Q15049)
T1 sequence: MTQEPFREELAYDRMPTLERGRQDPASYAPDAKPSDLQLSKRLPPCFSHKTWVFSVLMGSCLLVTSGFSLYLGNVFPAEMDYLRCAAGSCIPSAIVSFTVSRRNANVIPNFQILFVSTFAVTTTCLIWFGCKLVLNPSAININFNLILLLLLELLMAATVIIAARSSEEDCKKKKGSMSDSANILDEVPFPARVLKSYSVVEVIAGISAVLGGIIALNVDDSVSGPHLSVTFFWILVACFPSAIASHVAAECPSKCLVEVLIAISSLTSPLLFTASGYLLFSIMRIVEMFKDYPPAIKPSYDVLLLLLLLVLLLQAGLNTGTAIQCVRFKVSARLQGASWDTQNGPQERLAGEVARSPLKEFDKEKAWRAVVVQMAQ

T2: 2HA-MLC1-C326R (human (by the printed GeneID 23209; the paper does not say the species in words)) (UniProt Q15049)
T2 sequence: T1 sequence with L280S, C326R

T3: 2HA-MLC1-P92S (human (by the printed GeneID 23209; the paper does not say the species in words)) (UniProt Q15049)
T3 sequence: T1 sequence with P92S, L280S

T4: GlialCAM (glial cell adhesion molecule), Flag-tagged (UniProt Q14CZ8)
T4 sequence: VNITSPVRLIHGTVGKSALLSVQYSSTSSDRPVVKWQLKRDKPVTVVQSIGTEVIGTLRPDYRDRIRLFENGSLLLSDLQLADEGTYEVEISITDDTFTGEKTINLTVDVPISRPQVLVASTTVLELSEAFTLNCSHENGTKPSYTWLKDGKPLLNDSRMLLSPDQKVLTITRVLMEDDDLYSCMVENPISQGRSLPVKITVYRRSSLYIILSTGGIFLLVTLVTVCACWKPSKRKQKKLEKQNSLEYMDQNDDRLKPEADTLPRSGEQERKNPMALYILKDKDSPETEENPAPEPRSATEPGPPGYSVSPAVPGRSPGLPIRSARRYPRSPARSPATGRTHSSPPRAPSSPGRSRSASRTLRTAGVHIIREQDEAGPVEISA

B1: 2HA-MLC1 wild type (megalencephalic leukoencephalopathy with subcortical cyst 1) (protein, UniProt Q15049 1-377)
chain: T1 sequence with L280S
B2: 2HA-MLC1-P92S (protein, UniProt Q15049 1-377)
chain: T1 sequence with P92S, L280S
B3: 2HA-MLC1-C326R (protein, UniProt Q15049 1-377)
chain: T1 sequence with L280S, C326R
B4: 2HA-MLC1-S280L (protein, UniProt Q15049 1-377)
chain: T1 sequence

Tests used:
[1] = target: T1, 2HA-MLC1-S280L (human (by the printed GeneID 23209; the paper does not say the species in words)); assay: co-IP; cs-IP with anti-GlialCAM Ab (as in Fig. 3A) from HA-MLC1-S280L U251N cells treated with siUbr1 or siNT and with or without BafA1; Western blot
[2] = target: T1, 2HA-MLC1-S280L (human (by the printed GeneID 23209; the paper does not say the species in words)); assay: co-IP; total cell IP of the cellular pool of MLC1: Ab added directly to lysates of HeLa cells with siUbr1 or siNT and Flag-Ubr1-wt or -CI; Western blot for chaperones
[3] = target: T2, 2HA-MLC1-C326R (human (by the printed GeneID 23209; the paper does not say the species in words)); assay: co-IP; cell surface immunoprecipitation (cs-IP): anti-GlialCAM Ab bound to live HeLa cells 45 min on ice, unbound Ab washed off, lysis (0.4% NP-40 in co-IP assays), MLC1/GlialCAM complex precipitated, Western blot; signals normalised to precipitated MLC1; for Fig. 7G cells with siUbr1 or siNT and Flag-Ubr1-wt or -CI
[4] = target: T3, 2HA-MLC1-P92S (human (by the printed GeneID 23209; the paper does not say the species in words)); assay: as above
[5] = target: T1, 2HA-MLC1-S280L (human (by the printed GeneID 23209; the paper does not say the species in words)); assay: as above
[6] = target: T4, GlialCAM (glial cell adhesion molecule), Flag-tagged; assay: as above

| binding [2] | binding [3] | binding [4] | binding [5] | binding [6] | other results | Molecule |
| --- | --- | --- | --- | --- | --- | --- |
|  |  |  |  |  | binding [1]: binds | SQSTM1/p62 (from UniProt Q13501 1-440) |
| binds | binds | binds | binds |  |  | Hsp40 (DNAJB1) (from UniProt P25685 1-340) |
| binds |  |  | binds |  |  | Hsp90β (83.2 kDa) (from UniProt P08238 1-724) |
|  | binds | binds |  |  |  | CHIP (C-terminus of Hsc70-interacting protein) (from UniProt Q9UNE7 1-303) |
| binds |  |  |  |  |  | Hsp90α (90 kDa) (from UniProt P07900 1-732) |
| binds | binds | binds | binds |  |  | Hsc70 (from UniProt P11142 1-646) |
|  |  |  |  | binds |  | B1 |
|  |  |  |  | binds |  | B2 |
|  |  |  |  | binds |  | B3 |
|  |  |  |  | binds |  | B4 |
